Laboratory results as given in PMC10268282, “Activator-induced conformational changes regulate division-associated peptidoglycan amidases” (Proceedings of the National Academy of Sciences of the …, 2023).
No constants are given. Whether binding was seen depends on the method and setting. A result given as binding can be weak or reduced; the word gives no strength. Where a sequence is shown, tags or fusion partners need not be part of it.

The chains behind the UniProt entries cited, without tags or fusion partners. Where a name states a change or a piece, a line headed by the entry shows the natural chain unless it says otherwise.
UniProt P37690: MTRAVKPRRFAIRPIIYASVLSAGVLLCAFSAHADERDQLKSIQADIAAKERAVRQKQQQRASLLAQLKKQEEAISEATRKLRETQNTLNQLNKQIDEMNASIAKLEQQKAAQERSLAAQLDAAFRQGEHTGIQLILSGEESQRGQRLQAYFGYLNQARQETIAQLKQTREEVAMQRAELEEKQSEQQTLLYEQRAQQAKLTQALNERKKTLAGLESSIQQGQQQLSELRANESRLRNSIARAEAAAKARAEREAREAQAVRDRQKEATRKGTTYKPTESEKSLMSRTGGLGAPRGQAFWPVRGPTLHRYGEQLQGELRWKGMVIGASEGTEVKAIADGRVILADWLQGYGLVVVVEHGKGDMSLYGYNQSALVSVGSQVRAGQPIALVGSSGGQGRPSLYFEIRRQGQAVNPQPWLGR

Experiments:
[1] = biological target: EnvC LytM domain, bacterial 2-hybrid fusion (E. coli) (UniProt P37690); assay: two-hybrid; bacterial 2-hybrid (BACTH system), agar plate photographed after 4 d at 20 °C
[2] = biological target: EnvC LytM domain, bacterial 2-hybrid fusion (E. coli) (UniProt P37690); assay: two-hybrid; bacterial 2-hybrid (BACTH system), same agar plate photographed after 6 d at 20 °C

| binding [1] | binding [2] | Binder |
| --- | --- | --- |
| no binding |  | AmiA V188K, bacterial 2-hybrid fusion (enzyme, UniProt P36548 35-289) KDELLKTSNGHSKPKAKKSGGKRVVVLDPGHGGIDTGAIGRNGSKEKHVVLAIAKNVRSILRNHGIDARLTRSGDTFIPLYDRVEIAHKHGADLFMSIHADGFTNPKAAGASVFALSNRGASSAMAKYLSERENRADEVAGKKATDKDHLLQQKLFDLVQTDTIKNSLTLGSHILKKIKPVHKLHSRNTEQAAFVVLKSPSVPSVLVETSFITNPEEERLLGTAAFRQKIATAIAEGVISYFHWFDNQKAHSKKR |
| no binding |  | AmiA L192K, bacterial 2-hybrid fusion (enzyme, UniProt P36548 35-289) KDELLKTSNGHSKPKAKKSGGKRVVVLDPGHGGIDTGAIGRNGSKEKHVVLAIAKNVRSILRNHGIDARLTRSGDTFIPLYDRVEIAHKHGADLFMSIHADGFTNPKAAGASVFALSNRGASSAMAKYLSERENRADEVAGKKATDKDHLLQQVLFDKVQTDTIKNSLTLGSHILKKIKPVHKLHSRNTEQAAFVVLKSPSVPSVLVETSFITNPEEERLLGTAAFRQKIATAIAEGVISYFHWFDNQKAHSKKR |
| no binding |  | AmiA L185K, bacterial 2-hybrid fusion (enzyme, UniProt P36548 35-289) KDELLKTSNGHSKPKAKKSGGKRVVVLDPGHGGIDTGAIGRNGSKEKHVVLAIAKNVRSILRNHGIDARLTRSGDTFIPLYDRVEIAHKHGADLFMSIHADGFTNPKAAGASVFALSNRGASSAMAKYLSERENRADEVAGKKATDKDHLKQQVLFDLVQTDTIKNSLTLGSHILKKIKPVHKLHSRNTEQAAFVVLKSPSVPSVLVETSFITNPEEERLLGTAAFRQKIATAIAEGVISYFHWFDNQKAHSKKR |

The remaining lines, values behind:

| Binder | binding [1] | binding [2] |
| --- | --- | --- |
| AmiA (wild type), bacterial 2-hybrid fusion (enzyme, UniProt P36548 35-289) KDELLKTSNGHSKPKAKKSGGKRVVVLDPGHGGIDTGAIGRNGSKEKHVVLAIAKNVRSILRNHGIDARLTRSGDTFIPLYDRVEIAHKHGADLFMSIHADGFTNPKAAGASVFALSNRGASSAMAKYLSERENRADEVAGKKATDKDHLLQQVLFDLVQTDTIKNSLTLGSHILKKIKPVHKLHSRNTEQAAFVVLKSPSVPSVLVETSFITNPEEERLLGTAAFRQKIATAIAEGVISYFHWFDNQKAHSKKR | binds | binds |
| AmiA L184K, bacterial 2-hybrid fusion (enzyme, UniProt P36548 35-289) KDELLKTSNGHSKPKAKKSGGKRVVVLDPGHGGIDTGAIGRNGSKEKHVVLAIAKNVRSILRNHGIDARLTRSGDTFIPLYDRVEIAHKHGADLFMSIHADGFTNPKAAGASVFALSNRGASSAMAKYLSERENRADEVAGKKATDKDHKLQQVLFDLVQTDTIKNSLTLGSHILKKIKPVHKLHSRNTEQAAFVVLKSPSVPSVLVETSFITNPEEERLLGTAAFRQKIATAIAEGVISYFHWFDNQKAHSKKR | no binding |  |
| AmiA L189K, bacterial 2-hybrid fusion (enzyme, UniProt P36548 35-289) KDELLKTSNGHSKPKAKKSGGKRVVVLDPGHGGIDTGAIGRNGSKEKHVVLAIAKNVRSILRNHGIDARLTRSGDTFIPLYDRVEIAHKHGADLFMSIHADGFTNPKAAGASVFALSNRGASSAMAKYLSERENRADEVAGKKATDKDHLLQQVKFDLVQTDTIKNSLTLGSHILKKIKPVHKLHSRNTEQAAFVVLKSPSVPSVLVETSFITNPEEERLLGTAAFRQKIATAIAEGVISYFHWFDNQKAHSKKR | no binding |  |
